Laboratory results taken from US10391070B2, “Compositions and methods for treating neurological diseases or injury” (MUSC FOUNDATION FOR RESEARCH DEVELOPMENT, priority 2012, dated 2019).
Some results were stated once for a whole list of compounds, not compound by compound.

Assays:
[1] = test system: PTZ-induced seizures; assay: PTZ-induced seizure (swim activity) model in zebrafish larvae; format: in vivo, zebrafish (Danio rerio); conditions: 7 dpf zebrafish, 1 h pretreatment, 15 mM PTZ; 2j 10 μM, 2h 20 μM, 2q 20 μM, 3n 8 μM
Experimental: The DanioVision locomotion tracking instrument with Ethovision XT software (Noldus) was used to measure the severity of the seizures by quantifying the locomotor activity of each fish.
In a 48-well plate, one 6-7 dpf larva was added per well. Compounds were given at a sub-lethal dose and treated for 1 h. Three control rows were included—tank water (TW) only, PTZ only and PTZ+VPA (2-4 mM final concentration of VPA). […] After 5 min, the plate was transferred to the Daniovision apparatus and the chamber light was turned on. After 2 min, Ethovision was used to determine the distance traveled (a marker of seizure of activity) by each fish for 15 min (25 frames per second). Velocity, duration of movement, and frequency of movement were also determined from the same recording. After measurement, fish were monitored visually for survival. The distance moved over the recording period with Ethovision XT software (Noldus) was averaged over 8 wells per treatment unless the fish was not detected.
In a 48-well plate, one 7 dpf zebrafish was added per well. Larvae were dosed with each compound at a sub-lethal dose 1 h prior to PTZ treatment. Three control rows were included with each experiment—tank water only control, PTZ only and PTZ+VPA (4 mM final concentration of VPA). […] After recording, fish were monitored visually for survival. […]

[2] = test system: HT-22 cells; assay: Fluorometric ATP assay; format: cell-based, mouse; conditions: 8 h pretreatment

| Compound | fold reduction of PTZ-induced swim activity (distance traveled) [1] | increase of total cellular ATP levels above control [2] |
| --- | --- | --- |
| C#CCNC1=CC(=O)c2ccccc2C1=O [Compound 2h, 2-(prop-2-yn-1-ylamino)naphthalene-1,4-dione] | 2.5-3 fold | – |
| O=C1C=C(NCc2ccccc2)C(=O)c2ccccc21 [Compound 2j, 2-(benzylamino)naphthalene-1,4-dione] | 2.5-3 fold | – |
| CC1=CC(=O)c2ccccc2C1=O [VK3, menadione, reference compound] | – | 22-28% |
